From the supplement of paper PMC7877785
± gives the uncertainty stated by the source. Many of these values have a large error.

Assay: self-splicing fitness, log relative to wild type (ln ratio); higher = more splicing; Tetrahymena group I intron in knt gene, E. coli kanamycin selection, DiMSum; sequences stand for … in CUCUCU…GGAGGGAAAAGUUAUCAGGCAUGCACCUGGUAGCUAGUCUUUAAACCAAUAGAUUGCAUCGGUUUAAAAGGCAAGACCGUCAAAUUGCGGGAAAGGGGUCAACAGCCGUUCAGUACCAAGUCUCAGGGGAAACUUUGAGAUGGCCUUGCAAAGGGUAUGGUAAUAAGCUGACGGACAUGGUCCUAACCACGCAGCCAAGUCCUAAGUCAACAGAUCUUCUGUUGAUAUGGAUGCAGUUCACAGACUAAAUGUCGGUCGGGGAAGAUGUAUUCUUCUCAUAAGAUAUAGUCGGACCUCUCCUUAAUGGGAGCUAGCGGAUGAAGUGAUGCAACACUGGAGCCGCUGGGAACUAAUUUGUAUGCGAAAGUAUAUUGAUUAGUUUUGGAGUACUCGUGGUCG
Summary of the method: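 Six replicate transformations of E. coli BL21(DE3) with a pET-22b(+) library were grown overnight at 37°C or 30°C. The library randomised all eight P1ex-region intron nucleotides, the intron lying in the knt kanamycin-resistance gene, and plates were LB agar with or without 25 μg/mL kanamycin plus 100 μg/mL carbenicillin, 50 μM IPTG and 0.2% rhamnose. Pooled colonies were amplicon-sequenced on an Illumina HiSeq 2500, and fitness is the DiMSum error-weighted combination of wild-type-normalised replicate fold changes, kanamycin versus none.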

| Sequence | self-splicing fitness (ln) (30 °C) | self-splicing fitness (ln) (37 °C) |
| --- | --- | --- |
| AAACAGCAAUAUUACGAGAA | -3.12 ± 0.53 | – |
| GCGUAGCAAUAUUACGCUUG | -3.64 ± 0.52 | – |
| CUAUAGCAAUAUUACGGCUU | -3.75 ± 0.61 | -2.86 ± 0.61 |
| CCCAAGCAAUAUUACGCCAU | -3.28 ± 0.22 | -2.5 ± 0.23 |
| UUAGAGCAAUAUUACGACCG | – | -0.812 ± 0.54 |
| GAGUAGCAAUAUUACGGAUG | – | -2.83 ± 0.53 |
| GACUAGCAAUAUUACGCCAA | -2.8 ± 0.52 | – |
| AUGUAGCAAUAUUACGUGGG | -5.27 ± 1 | – |
| AACGAGCAAUAUUACGGCAG | -4.19 ± 1 | – |
| UUUAAGCAAUAUUACGCGGC | -3.47 ± 0.53 | – |
| AAUGAGCAAUAUUACGGACG | – | -3.66 ± 0.6 |
| GGAGAGCAAUAUUACGCAAA | – | -1.44 ± 0.52 |
| UGGGAGCAAUAUUACGAGGC | – | -1.88 ± 1.2 |
| CUAAAGCAAUAUUACGCUUC | – | -2.51 ± 0.54 |
| CCUGAGCAAUAUUACGCCCG | – | -2.79 ± 1.1 |
| CCUCAGCAAUAUUACGGACC | -5.51 ± 0.58 | – |
| GCGGAGCAAUAUUACGCGCU | – | -2.4 ± 0.76 |
| UCAUAGCAAUAUUACGUCAC | -3.41 ± 0.56 | -1.95 ± 0.81 |
| GUGUAGCAAUAUUACGGAGA | -4.16 ± 1 | – |
| AAGGAGCAAUAUUACGCUCA | -0.0124 ± 0.56 | – |
| UUAUAGCAAUAUUACGCGGC | -2.42 ± 0.49 | -2.4 ± 0.37 |
| CCGCAGCAAUAUUACGGACC | – | -1.79 ± 0.61 |
| AGUGAGCAAUAUUACGCAGA | -2.73 ± 0.76 | – |
| ACUAAGCAAUAUUACGACUU | -0.429 ± 0.093 | 0.924 ± 0.12 |

Single values from above:
Entry for CCGCAGCAAUAUUACGGACC under self-splicing fitness (ln) (37 °C): -1.79 ± 0.61
Entry for CCUGAGCAAUAUUACGCCCG under self-splicing fitness (ln) (37 °C): -2.79 ± 1.1
Entry for AAUGAGCAAUAUUACGGACG under self-splicing fitness (ln) (37 °C): -3.66 ± 0.6
Entry for GCGUAGCAAUAUUACGCUUG under self-splicing fitness (ln) (30 °C): -3.64 ± 0.52

Later entries:

| Sequence | self-splicing fitness (ln) (30 °C) | self-splicing fitness (ln) (37 °C) |
| --- | --- | --- |
| UGGGAGCAAUAUUACGGUCC | – | -1.08 ± 0.52 |
| UCGGAGCAAUAUUACGCGUC | – | -1.54 ± 1.2 |
| ACGAAGCAAUAUUACGAAAC | – | -3.13 ± 0.73 |
| GCACAGCAAUAUUACGUGCC | – | -3.45 ± 0.6 |
| UCAGAGCAAUAUUACGCAGC | -4.1 ± 0.52 | -2.69 ± 0.62 |
| CCAGAGCAAUAUUACGGAGC | – | -4.51 ± 0.59 |
| CGCAAGCAAUAUUACGUUCA | -1.33 ± 0.1 | -0.636 ± 0.098 |
| CUCGAGCAAUAUUACGCCUA | -3.63 ± 0.6 | – |
| UUCUAGCAAUAUUACGAACC | -2.47 ± 0.78 | – |
| GACUAGCAAUAUUACGUCAC | – | -3 ± 0.53 |
| UCAGAGCAAUAUUACGGGCC | – | -2.57 ± 1.1 |
| AGUAAGCAAUAUUACGACCC | -1.01 ± 0.47 | -0.157 ± 0.35 |
| GCUCAGCAAUAUUACGCCCG | -1.62 ± 0.55 | – |
| UCUUAGCAAUAUUACGAGAC | – | -2.85 ± 0.54 |
| ACUAAGCAAUAUUACGAGGA | -2.34 ± 0.23 | -2.13 ± 0.2 |
| AGGGAGCAAUAUUACGUAGC | – | -2.52 ± 1.1 |
| GCAUAGCAAUAUUACGAAGU | – | -2.27 ± 0.51 |
| UGGCAGCAAUAUUACGCAGC | -4.05 ± 1 | – |
| CGUUAGCAAUAUUACGGCGC | -3.31 ± 1 | – |
| AAUGAGCAAUAUUACGAAGC | -3.08 ± 0.35 | -1.89 ± 0.43 |
| CUCUAGCAAUAUUACGAUUC | -4.29 ± 1.1 | -3.87 ± 0.72 |
| GGUUAGCAAUAUUACGGUCC | -1.77 ± 0.49 | -1.46 ± 0.57 |
| CGAAAGCAAUAUUACGAACA | -1.92 ± 0.13 | -0.112 ± 0.12 |
| AUCCAGCAAUAUUACGUGAA | -0.631 ± 0.049 | -0.212 ± 0.072 |

| Sequence | self-splicing fitness (ln) (30 °C) | self-splicing fitness (ln) (37 °C) |
| --- | --- | --- |
| GGUUAGCAAUAUUACGAAAA | -2.05 ± 0.41 | 0.949 ± 0.28 |
| UUCGAGCAAUAUUACGAUGC | – | -1.54 ± 0.71 |
| GUUUAGCAAUAUUACGCAGC | -2.09 ± 1.4 | -0.681 ± 1 |
| UUAUAGCAAUAUUACGCGCU | -2.25 ± 0.14 | -1.55 ± 0.13 |
| AAUCAGCAAUAUUACGUGUU | -0.901 ± 0.056 | 0.209 ± 0.064 |
| UACGAGCAAUAUUACGUGCC | – | -2.98 ± 1.1 |
| UAAGAGCAAUAUUACGCCGA | – | -3.18 ± 1 |
| AGGGAGCAAUAUUACGAAGG | – | -2.68 ± 0.75 |
| AGAGAGCAAUAUUACGAUAG | -3.88 ± 1.1 | – |
| GCAUAGCAAUAUUACGAUGU | -2.82 ± 0.13 | -2.31 ± 0.17 |
| UGAGAGCAAUAUUACGCGGG | -3.19 ± 1.2 | -1.98 ± 0.66 |
| GAGGAGCAAUAUUACGCCGU | – | -1.54 ± 0.82 |
| AUUGAGCAAUAUUACGCUCC | – | -2.85 ± 0.79 |
| GGCAAGCAAUAUUACGUGCC | -3.73 ± 0.52 | – |
| UUCGAGCAAUAUUACGCACU | -3.28 ± 0.53 | – |
| CUUGAGCAAUAUUACGACUA | – | -1.43 ± 0.61 |
| UCCCAGCAAUAUUACGUUCC | -2.26 ± 0.21 | -2.44 ± 0.27 |
| GCGCAGCAAUAUUACGACUC | -0.32 ± 0.17 | 0.304 ± 0.15 |
| GCGUAGCAAUAUUACGCCAA | -1.44 ± 0.57 | – |
| CUGGAGCAAUAUUACGAGAA | -1.27 ± 0.65 | -2.64 ± 1.1 |
| GUCUAGCAAUAUUACGAUCU | -1.57 ± 0.12 | -0.315 ± 0.14 |
| UGCGAGCAAUAUUACGGAAC | -3.98 ± 0.72 | – |
| GUAUAGCAAUAUUACGUCCG | -2.98 ± 0.18 | -1.21 ± 0.17 |
| GGGCAGCAAUAUUACGGCCG | -1.5 ± 0.16 | -1.59 ± 0.26 |

| Sequence | self-splicing fitness (ln) (30 °C) | self-splicing fitness (ln) (37 °C) |
| --- | --- | --- |
| AACGAGCAAUAUUACGGAUG | – | -3.46 ± 0.59 |
| UCACAGCAAUAUUACGAUUC | -3.61 ± 0.16 | -3.05 ± 0.18 |
| GUUGAGCAAUAUUACGAUUC | -0.993 ± 0.12 | 0.00124 ± 0.2 |
| GGGAAGCAAUAUUACGCCGC | -3.18 ± 0.74 | -1.69 ± 1.2 |
| UGAGAGCAAUAUUACGAUAA | – | -1.5 ± 0.69 |
| AGUUAGCAAUAUUACGUAGG | – | -1.87 ± 0.58 |
| UAAAAGCAAUAUUACGUUUG | -2.22 ± 0.1 | -0.909 ± 0.11 |
| AUGGAGCAAUAUUACGACGG | -3.21 ± 1.1 | – |
| GUCAAGCAAUAUUACGGCUG | – | -3.53 ± 0.52 |
| CUGUAGCAAUAUUACGUGAA | -5.2 ± 1 | – |
| CAAGAGCAAUAUUACGCAAC | -3.34 ± 0.6 | -1.69 ± 0.84 |
| GAAUAGCAAUAUUACGGAAU | -2.69 ± 0.17 | -1.66 ± 0.2 |
| CUAUAGCAAUAUUACGCGUA | -1.43 ± 0.31 | -2.86 ± 0.31 |
| GGGUAGCAAUAUUACGUUAG | -3.63 ± 0.52 | – |
| CCUGAGCAAUAUUACGACAA | -3.49 ± 0.61 | -3.92 ± 0.72 |
| CCUCAGCAAUAUUACGGGCA | -4.2 ± 0.59 | – |
| AAAGAGCAAUAUUACGCUAC | -2.33 ± 0.64 | – |
| CCAGAGCAAUAUUACGCCCA | -2.71 ± 0.66 | -1.33 ± 0.64 |
| AAAGAGCAAUAUUACGGGCC | -2.09 ± 0.3 | -1.86 ± 0.41 |
| GAAGAGCAAUAUUACGCAAC | -2.54 ± 0.6 | -2.41 ± 0.65 |
| GUCAAGCAAUAUUACGUGGA | -2.86 ± 0.17 | -1.58 ± 0.12 |
| CAAGAGCAAUAUUACGCCUC | – | -3.08 ± 1 |
| UCCGAGCAAUAUUACGUACA | – | -2.82 ± 0.53 |
